Test results from US10647742 (dated 2020).

Assay: general procedure: Fmoc solid-phase peptide synthesis; Rink amide resin, Rink amide AM Resin or Rink amide MBHA Resin, substitution degree 0.2-1.0 mmol/g; HBTU/HOBt/DIPEA
Settings: whole synthesis, scale of the general procedure 25.00 g of Rink-Amide resin, 0.20 mmol/g

Substance | crude HPLC purity (HPLC, 220 nm) [%] | crude yield [%] | final HPLC purity (HPLC, 220 nm) [%] | crude HPLC purity (HPLC, 220 nm, run 1) [%] | crude HPLC purity (HPLC, 220 nm, run 2) [%] | crude HPLC purity (HPLC, 220 nm, run 3) [%] | crude yield (run 1) [%] | crude yield (run 2) [%] | crude yield (run 3) [%]
H-D-Cys^1-D-Ala^2-D-Arg^3-D-Arg^4-D-Arg^5-D-Ala^6-D-Arg^7-NH2 | 85.2 | 95.24 | – | – | – | – | – | – | –
Etelcalcetide | – | – | 98.50 | 81.5 | 80.8 | 81.0 | 96.20 | 98.01 | 95.16
